Test results: patent US10000793B2, “Method for enumeration of mammalian cell micronuclei, while distinguishing chromatin of dead and dying cells” (priority 2004, dated 2018)

Tested on: L5178Y cells
Assay: In vitro micronucleus test, flow cytometric (EMA/SYTOX) and microscopy scoring, L5178Y cells
Conditions: 0-4 hr treatments to accumulate cells in metaphase; only when particles resuspended by gentle tapping
Protocol: L5178Y cells were treated over a range of chemical concentrations in culture medium, one 25 cm^2 flask per concentration. During treatment, cells were at 3×10^5/ml in a volume of 20 ml per flask (this high number of cells facilitated multiple readings per flask). After a 4 hr treatment period, cells were washed one time via centrifugation at 600×g, resuspended in a volume of 40 ml culture medium, and transferred to 75 cm^2 flasks. Cells were re-incubated at 37° C. for 20 additional hrs—the equivalent of two normal doubling times.
In this case, cultures (1.5×10^5 cells/ml, 40 ml/flask) were continuously exposed to chemical over a range of concentrations. […]
Samples, stored for up to two days at 4° C., were gently tapped to resuspend the particles. […] SYTOX-associated fluorescence emission was collected in the FL1 channel (530/30 band-pass filter), and EMA-associated fluorescence was collected in the FL3 channel (670 long-pass filter). Events were triggered on FL1 fluorescence. The FCM gating strategy that was developed for this micronuclei scoring application required events to meet each of six separate criteria before they were scored as nuclei or micronuclei (see FIGS. 2A-H). The incidence of flow cytometric-scored micronuclei is expressed as frequency percent (no. micronuclei/no. nuclei×100), and are based on the acquisition of 20,000 EMA-negative nuclei per specimen. […]

CN[C@H]1CCc2cc(OC)c(OC)c(OC)c2-c2ccc(OC)c(=O)cc21 [colcemid]
micronuclei frequencies by flow cytometric analysis: baseline-like
